Measurements from patent US20140348745A1.
No constants are given. Whether binding was seen depends on the method and setting. Some entries that bind do so weakly or less than the wild type.

T1: human CD37 antigen (human) (UniProt P11049)
T1 sequence (looked up): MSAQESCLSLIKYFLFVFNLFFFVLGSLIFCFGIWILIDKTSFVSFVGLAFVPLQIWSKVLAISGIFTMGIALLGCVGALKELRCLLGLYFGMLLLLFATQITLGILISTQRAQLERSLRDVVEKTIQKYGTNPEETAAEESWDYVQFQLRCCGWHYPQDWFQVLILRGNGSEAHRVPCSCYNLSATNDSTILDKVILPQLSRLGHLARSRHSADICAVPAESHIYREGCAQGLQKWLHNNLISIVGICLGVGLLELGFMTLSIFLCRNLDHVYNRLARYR

B1: chimeric HH1 anti-CD37 antibody, human IgG1 isotype (chHH1.1) (antibody, V domains shown)
VH: EIQLQQSGPELVKPGASVKVSCKASGYSFTDYNMYWVKQSHGKSLEWIGYIDPYNGDTTYNQKFKGKATLTVDKSSSTAFIHLNSLTSEDSAVYYCARSPYGHYAMDYWGQGTSVTVSS
VL: DIVMTQSHKLLSTSVGDRVSITCKASQDVSTAVDWYQQKPGQSPKLLINWASTRHTGVPDRFTGSGSGTDYTLTISSMQAEDLALYYCRQHYSTPFTFGSGTKLEIK
B2: chimeric HH1 with isotype IgG3 (chHH1.3) (antibody, V domains shown)
VH: B1 VH
VL: DIVMTQSHKLLSTSVGDRVSITCKASQDVSTAVDWYQQKPGQSPKLLINWASTRHTGVPDRFTGSGSGTDYTLTISSMQAEDLALYYCRQHYSTPFTFGSGTKLEIKR

What was measured:
[1] = molecular target: T1, human CD37 antigen (human); experiment: flow cytometry on Daudi cells
[2] = molecular target: T1, human CD37 antigen (human); experiment: radioligand binding to Daudi lymphoma cells
[3] = molecular target: T1, human CD37 antigen (human); experiment: cross-blocking of 125I-chHH1.3 on Ramos cells
[4] = molecular target: T1, human CD37 antigen (human); experiment: cross-blocking of radiolabelled antibodies on Ramos cells

Binder | binding [1] | binding [2] | binding [3] | binding [4]
B1 | binds | binds |  | 
B2 |  |  | binds | binds
